Data: PubChem BioAssay AID1508600 (Functional Genomics Laboratory (NCATS/FGL), 2020)
The campaign covered roughly 53,000 sequences. About 3,700 (7%) were called active.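 Rule for the calls: active = gene knockdowns whose robust z-score for IL-1 alpha signal is at least 2 or at most -2, so actives lie on both sides; inactive = the rest.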 Some of the results follow.

Assay: Components of the Cytosolic LPS Sensing Pathway: Gene Identification via Genome-wide siRNA Screen;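 note: robust z of the log signal after scaling to non-targeting control siRNA wells of the plate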
Conditions: RAW264.7 macrophages, IL-1a HTRF, actives lie on both sides, screened at 100 nM (by protocol), cells primed 5 h with Pam3CSK4 first
Method in brief: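 Mouse macrophage line RAW264.7 is transfected with siRNA (100 nM final), grown 48h, primed with TLR ligand Pam3CSK4 5 h and given intracellular LipidA 24 h. IL-1a in supernatant is read by HTRF and viability by luminescence.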

**Q.** Which z-score does the source give for GCUGGAUCCAUCUAAUUGCTT against Klhl12 here?
**A.** Its z-score is inactive: 0.0684.

**Q.** For “GGAAUAACCCAGAGAACUATT against 9430097D07Rik”, which z-score is on record?
**A.** The z-score was inactive: 0.24.

**Q.** With GGGUGGUUAGAACAGCCACTT against Prss16 as the sequence, how does the z-score read?
**A.** The z-score was inactive: -1.21.

**Q.** Which z-score does the source give for CGACUCCAAGUGGUUUAAATT against Sema6b here?
**A.** Its z-score is inactive: 1.34.

**Q.** With GGAUGACCAUGAAAGCUGUTT against Vps13b as the sequence, how does the z-score read?
**A.** The z-score was inactive: 1.87.

**Q.** With GGUGAGAAAUCGAAGCCCUTT against H1f8 as the sequence, how does the z-score read?
**A.** The z-score was inactive: -1.12.

**Q.** For CCUCUGAACUCCAACCGAATT against Thegl, which z-score is on record?
**A.** Its z-score is inactive: 0.415.

**Q.** Which z-score does the source give for GCACCUAAAGUACGUUUCATT against Ube2n here?
**A.** The z-score was inactive: -0.163.

**Q.** Which z-score does the source give for GCCAGUACACUCCACCUGUTT against Cep55 here?
**A.** Its z-score is inactive: -1.83.

**Q.** For GGUAGUAGAGUCAAAAAAGTT against Top1, which z-score is on record?
**A.** The z-score was inactive: 0.805.

**Q.** For GGUGUAAAGUAAUCAAGGCTT against Dbx2, which z-score is on record?
**A.** Its z-score is inactive: 0.453.

**Q.** With GGAACAGAACCUCAGACGATT against Itih5 as the sequence, how does the z-score read?
**A.** The z-score was inactive: 0.782.

**Q.** For GCAACAACCUGUGCCUACATT against Lgals1, which z-score is on record?
**A.** Its z-score is inactive: 0.573.

**Q.** With GGUUCUUGACCCUUUCACATT against Atcay as the sequence, how does the z-score read?
**A.** Its z-score is inactive: -1.11.

**Q.** For GCUGUGAAAACGCAGUUACTT against Ccser2, which z-score is on record?
**A.** Its z-score is inactive: 1.77.

**Q.** Which z-score does the source give for GGUACACUGGUAUACGUAUTT against Samd9l here?
**A.** Its z-score is inactive: -1.45.

**Q.** Which z-score does the source give for GACUCCCACUUACACUCUCTT against Olfr1312 here?
**A.** The z-score was inactive: 0.284.

**Q.** For CGGAACCAUACUUUCCUUATT against Olfr1162, which z-score is on record?
**A.** Its z-score is inactive: 0.205.

**Q.** With GCAGAGAUAAAUUGGAAAGTT against Art2b as the sequence, how does the z-score read?
**A.** Its z-score is inactive: 0.292.

**Q.** Which z-score does the source give for GGUUACAUGGAUUGAAGCUTT against Scrn3 here?
**A.** The z-score was inactive: 0.183.

**Q.** For GCCAAUGAUACCUUUGACATT against Mcoln1, which z-score is on record?
**A.** The z-score was inactive: -0.385.

**Q.** For GCCCUUUUCAAGUGAUCAGTT against Pfkfb1, which z-score is on record?
**A.** Its z-score is inactive: -1.33.

**Q.** Which z-score does the source give for CGAGAUGGGAGAUUGAAAUTT against Ms4a8a here?
**A.** The z-score was inactive: 0.47.

**Q.** Which z-score does the source give for GCCAAUUGGACCUUAGAAATT against Nup107 here?
**A.** The z-score was active: -2.58.

**Q.** Which z-score does the source give for GGGUAUAGGGAUGGUGAAUTT against Ppil1 here?
**A.** The z-score was inactive: 0.834.

**Q.** For GCUGGUACAGCGUAUACCATT against Cep170b, which z-score is on record?
**A.** The z-score was inactive: -1.03.

**Q.** Which z-score does the source give for CCUGAUGAUUCAACAAAAGTT against Pum2 here?
**A.** The z-score was inactive: 0.106.

**Q.** For GGUCCUGACUGGAUACCUGTT against Ece1, which z-score is on record?
**A.** The z-score was active: 4.19.

**Q.** With GGAGGACCUAGAUGUCAAATT against Prpf38b as the sequence, how does the z-score read?
**A.** The z-score was inactive: 1.19.

**Q.** For GCCAUGAAUCCUAUCCGCATT against Ephb3, which z-score is on record?
**A.** The z-score was inactive: -0.967.

**Q.** With GGAGAAAGGAUAUGAACUUTT against Rbm47 as the sequence, how does the z-score read?
**A.** The z-score was inactive: 0.322.

**Q.** Which z-score does the source give for CCUCUGUGCUCGUCUUUUUTT against Arhgap6 here?
**A.** The z-score was inactive: -1.15.

**Q.** Which z-score does the source give for GCGGACAGUUUGGCACAAUTT against Becn1 here?
**A.** The z-score was inactive: 0.537.

**Q.** With GGUGUAUCAAGAAACUAACTT against Ago3 as the sequence, how does the z-score read?
**A.** The z-score was inactive: 0.55.

**Q.** With GGUGAAGAAGGUGUUCCAUTT against Pvalb as the sequence, how does the z-score read?
**A.** The z-score was inactive: 1.48.

**Q.** For GGGCGACAUCUUUAGCAAATT against Sh3bp4, which z-score is on record?
**A.** The z-score was inactive: -0.0472.

**Q.** With GACCAUCAGUGAUUGAGGATT against Speer4b as the sequence, how does the z-score read?
**A.** Its z-score is inactive: -1.67.

**Q.** With “CGACCAUUAUACAACAGAUTT against F630111L10Rik” as the sequence, how does the z-score read?
**A.** Its z-score is inactive: 0.294.

**Q.** For GGAACAAAGAUGUCAAGAUTT against Olfr904, which z-score is on record?
**A.** Its z-score is inactive: -1.84.

**Q.** For GGAAACAGUCAUGCAGCAATT against Plvap, which z-score is on record?
**A.** The z-score was inactive: -0.348.

**Q.** With GGAGUCAUGUCUGUUGGCATT against Naa16 as the sequence, how does the z-score read?
**A.** Its z-score is inactive: -1.6.

**Q.** For GGCAAAGGCCUAUGAACUGTT against Phka1, which z-score is on record?
**A.** The z-score was inactive: 0.484.

**Q.** Which z-score does the source give for GGAGACGGAGCUGUUAGAUTT against Plcb1 here?
**A.** The z-score was inactive: -0.104.

**Q.** For GGACUUACUGACAAGAAACTT against Pcdhgb8, which z-score is on record?
**A.** The z-score was inactive: -0.52.

**Q.** Which z-score does the source give for GGGCCAAUGAUGGACUUCCTT against Syp here?
**A.** Its z-score is inactive: 0.33.

**Q.** With GGUGAAGACUUCCAGAAGGTT against Reg3a as the sequence, how does the z-score read?
**A.** The z-score was inactive: -0.186.

**Q.** Which z-score does the source give for GCCAGUGGUAUCUGGAAGUTT against Brca2 here?
**A.** The z-score was inactive: 0.0865.

**Q.** With GGUGCUGAACAUCUAUGGGTT against Myo1d as the sequence, how does the z-score read?
**A.** Its z-score is inactive: 0.497.

**Q.** For GGGAUUGAACCCUUGUUUUTT against BC049762, which z-score is on record?
**A.** The z-score was inactive: 1.03.

**Q.** With CCUUCUUGACUAUUCGUCUTT against Olfr1509 as the sequence, how does the z-score read?
**A.** Its z-score is inactive: -0.58.

**Q.** With GGUCCCUUUAUCUUUCUUUTT against Vwa7 as the sequence, how does the z-score read?
**A.** Its z-score is inactive: -0.099.

**Q.** For GGCUAUUAAAGAUUUGAUGTT against Myef2, which z-score is on record?
**A.** The z-score was inactive: -1.27.

**Q.** Which z-score does the source give for GCUCACUAAAUCCUUGAAATT against Trim31 here?
**A.** The z-score was inactive: -0.00166.

**Q.** For GCCAUAGAAGUAGAAGUAGTT against Rbmx2, which z-score is on record?
**A.** Its z-score is active: -2.29.

**Q.** For GCUCUAUUUGACCACCUCATT against Gdpd1, which z-score is on record?
**A.** The z-score was inactive: -0.898.

**Q.** For GGAAUUUAAGCUGUACACATT against Efcab9, which z-score is on record?
**A.** The z-score was inactive: -0.747.

**Q.** For GGGAAUUCUGAAAUCAUUCTT against Tmem117, which z-score is on record?
**A.** The z-score was inactive: -0.169.

**Q.** Which z-score does the source give for GGUUGUUGGAAAAGAUGAATT against Ids here?
**A.** The z-score was inactive: -1.55.

**Q.** With GCUGUGAAUUCCAAAUGCGTT against Myh4 as the sequence, how does the z-score read?
**A.** Its z-score is active: 3.33.

**Q.** Which z-score does the source give for GCAAUAGGCAAUCUGGGAUTT against Olfr52 here?
**A.** The z-score was inactive: 0.504.

**Q.** With CCGGUACAAUUCCUGUGAUTT against Uevld as the sequence, how does the z-score read?
**A.** The z-score was inactive: -1.37.

**Q.** With GGGAGCAUUUCCUUAUACUTT against Tpmt as the sequence, how does the z-score read?
**A.** The z-score was inactive: 0.67.

**Q.** Which z-score does the source give for GGGAUGAUUAGAAAAUUCUTT against Fam124b here?
**A.** The z-score was inactive: 0.89.

**Q.** With CCUCAUGUAGCAUUUUUCUTT against Pex11b as the sequence, how does the z-score read?
**A.** The z-score was inactive: -0.41.

**Q.** Which z-score does the source give for GCCAGAUCUUAUCAUUAUUTT against Dnajc18 here?
**A.** The z-score was inactive: 0.684.

**Q.** Which z-score does the source give for CCAGAAAUCCCUAUAGAUGTT against Ambra1 here?
**A.** Its z-score is inactive: -0.742.

**Q.** For GGACCACAGAAGUUCUCAUTT against Pira2, which z-score is on record?
**A.** Its z-score is active: -2.88.

**Q.** Which z-score does the source give for CGACAAGAAGACUUCGAAUTT against Mnt here?
**A.** Its z-score is inactive: -1.28.
